± gives the standard deviation of the averaged measurements. This is a selection; strong and weak results do not stand in their true shares.
Compound: Nc1ncnc2c1ncn2[C@@H]1O[C@H](COP(=O)(O)OP(=O)(O)OP(=O)(O)O)[C@@H](O)[C@H]1O [adenosine triphosphate]
Assay: NP40-soluble protein abundance relative to vehicle (solubility fold change) (ratio); higher = more soluble protein in presence of ATP
Summary of the method: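 In three independent experiments, Jurkat crude lysate made by Dounce homogenisation was treated for 10 min at room temperature and then 3 min at 37 °C with eight concentrations ranging from 0.1 to 10 mM. It was then solubilised with 0.8% NP40 plus benzonase for 60 min at 4 °C and ultracentrifuged. The supernatant was TMT-labelled for LC-MS/MS, and each value is the fold change against the detergent-processed vehicle for the same replicate, using vsn-normalised intensities.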

Sequences of proteins named here, by UniProt entry; tags and fusion partners are left off. A change or cut given only in a name is not applied to a line headed by its entry.
UniProt P09382, whole entry: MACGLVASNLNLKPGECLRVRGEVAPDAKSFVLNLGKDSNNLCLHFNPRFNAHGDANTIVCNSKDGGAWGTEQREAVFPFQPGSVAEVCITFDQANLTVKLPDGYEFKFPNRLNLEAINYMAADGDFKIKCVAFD
UniProt P05141: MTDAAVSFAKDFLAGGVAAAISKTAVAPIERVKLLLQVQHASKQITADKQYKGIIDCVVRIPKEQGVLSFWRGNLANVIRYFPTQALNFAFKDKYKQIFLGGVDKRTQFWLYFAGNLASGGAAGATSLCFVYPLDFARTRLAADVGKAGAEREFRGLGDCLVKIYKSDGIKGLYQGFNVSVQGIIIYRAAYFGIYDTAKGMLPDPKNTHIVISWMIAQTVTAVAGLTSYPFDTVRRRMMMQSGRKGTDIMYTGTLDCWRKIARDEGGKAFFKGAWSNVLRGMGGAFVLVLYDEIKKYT
UniProt P07919: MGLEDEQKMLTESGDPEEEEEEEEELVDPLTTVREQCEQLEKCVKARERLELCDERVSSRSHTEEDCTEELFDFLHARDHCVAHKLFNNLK
UniProt P10747, whole entry: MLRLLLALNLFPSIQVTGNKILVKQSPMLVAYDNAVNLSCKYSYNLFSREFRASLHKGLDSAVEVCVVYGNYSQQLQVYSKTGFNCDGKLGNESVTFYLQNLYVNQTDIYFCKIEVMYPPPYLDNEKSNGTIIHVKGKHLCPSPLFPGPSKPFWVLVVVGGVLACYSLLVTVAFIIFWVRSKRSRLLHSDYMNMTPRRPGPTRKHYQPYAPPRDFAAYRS
UniProt P13807: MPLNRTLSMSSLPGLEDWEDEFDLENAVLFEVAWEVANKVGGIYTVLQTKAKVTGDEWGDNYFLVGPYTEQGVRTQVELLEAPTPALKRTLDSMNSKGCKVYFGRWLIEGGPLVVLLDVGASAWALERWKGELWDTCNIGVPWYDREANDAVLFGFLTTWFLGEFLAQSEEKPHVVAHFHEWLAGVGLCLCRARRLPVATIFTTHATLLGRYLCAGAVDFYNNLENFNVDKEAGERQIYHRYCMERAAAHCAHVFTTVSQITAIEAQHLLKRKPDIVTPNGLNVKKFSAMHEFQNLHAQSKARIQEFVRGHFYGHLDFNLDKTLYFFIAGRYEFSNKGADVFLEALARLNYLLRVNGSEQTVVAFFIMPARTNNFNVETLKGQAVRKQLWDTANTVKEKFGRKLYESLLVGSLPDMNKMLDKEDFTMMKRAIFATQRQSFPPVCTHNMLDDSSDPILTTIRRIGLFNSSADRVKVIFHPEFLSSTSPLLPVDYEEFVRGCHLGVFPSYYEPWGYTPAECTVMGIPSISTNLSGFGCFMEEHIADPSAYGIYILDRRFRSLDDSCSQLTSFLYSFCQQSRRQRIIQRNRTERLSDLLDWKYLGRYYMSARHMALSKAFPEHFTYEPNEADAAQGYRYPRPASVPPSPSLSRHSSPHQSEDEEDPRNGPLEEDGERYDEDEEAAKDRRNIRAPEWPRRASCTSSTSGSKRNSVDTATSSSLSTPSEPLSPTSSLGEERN
UniProt P10244: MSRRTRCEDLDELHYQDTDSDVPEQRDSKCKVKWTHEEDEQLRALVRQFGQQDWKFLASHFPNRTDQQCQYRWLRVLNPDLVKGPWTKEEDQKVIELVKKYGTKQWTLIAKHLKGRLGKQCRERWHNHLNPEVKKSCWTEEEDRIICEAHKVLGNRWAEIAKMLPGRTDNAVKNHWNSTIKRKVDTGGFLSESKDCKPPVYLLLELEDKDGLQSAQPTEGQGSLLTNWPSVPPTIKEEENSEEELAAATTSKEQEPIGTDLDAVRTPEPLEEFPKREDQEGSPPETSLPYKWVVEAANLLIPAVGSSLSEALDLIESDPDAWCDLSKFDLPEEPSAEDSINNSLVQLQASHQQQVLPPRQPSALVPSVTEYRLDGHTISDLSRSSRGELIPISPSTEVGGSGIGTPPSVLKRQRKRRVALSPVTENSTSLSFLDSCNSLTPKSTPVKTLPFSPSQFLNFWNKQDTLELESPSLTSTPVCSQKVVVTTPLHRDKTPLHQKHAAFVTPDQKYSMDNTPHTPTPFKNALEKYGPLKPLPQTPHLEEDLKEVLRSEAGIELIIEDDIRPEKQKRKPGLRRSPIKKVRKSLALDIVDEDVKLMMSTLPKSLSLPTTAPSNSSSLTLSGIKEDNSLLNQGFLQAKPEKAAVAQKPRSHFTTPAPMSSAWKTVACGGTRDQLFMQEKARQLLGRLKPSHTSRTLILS
UniProt P10515, whole entry: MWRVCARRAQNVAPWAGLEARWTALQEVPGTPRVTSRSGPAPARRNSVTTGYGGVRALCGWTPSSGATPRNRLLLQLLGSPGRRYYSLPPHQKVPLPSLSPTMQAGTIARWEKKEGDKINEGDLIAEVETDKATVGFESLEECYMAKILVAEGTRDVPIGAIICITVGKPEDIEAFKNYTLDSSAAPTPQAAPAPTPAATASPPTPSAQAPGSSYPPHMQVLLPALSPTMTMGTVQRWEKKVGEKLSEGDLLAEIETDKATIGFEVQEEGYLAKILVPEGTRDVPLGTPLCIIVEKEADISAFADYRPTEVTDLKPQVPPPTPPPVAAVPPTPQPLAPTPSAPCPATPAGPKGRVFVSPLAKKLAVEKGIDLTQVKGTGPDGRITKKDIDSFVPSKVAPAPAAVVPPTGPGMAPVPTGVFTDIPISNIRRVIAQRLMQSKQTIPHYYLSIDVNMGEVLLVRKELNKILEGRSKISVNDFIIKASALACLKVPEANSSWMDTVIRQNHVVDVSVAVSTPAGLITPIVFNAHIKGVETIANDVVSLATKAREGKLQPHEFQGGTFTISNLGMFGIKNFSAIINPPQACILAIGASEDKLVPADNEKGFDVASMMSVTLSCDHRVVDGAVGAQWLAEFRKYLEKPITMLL
UniProt P04035: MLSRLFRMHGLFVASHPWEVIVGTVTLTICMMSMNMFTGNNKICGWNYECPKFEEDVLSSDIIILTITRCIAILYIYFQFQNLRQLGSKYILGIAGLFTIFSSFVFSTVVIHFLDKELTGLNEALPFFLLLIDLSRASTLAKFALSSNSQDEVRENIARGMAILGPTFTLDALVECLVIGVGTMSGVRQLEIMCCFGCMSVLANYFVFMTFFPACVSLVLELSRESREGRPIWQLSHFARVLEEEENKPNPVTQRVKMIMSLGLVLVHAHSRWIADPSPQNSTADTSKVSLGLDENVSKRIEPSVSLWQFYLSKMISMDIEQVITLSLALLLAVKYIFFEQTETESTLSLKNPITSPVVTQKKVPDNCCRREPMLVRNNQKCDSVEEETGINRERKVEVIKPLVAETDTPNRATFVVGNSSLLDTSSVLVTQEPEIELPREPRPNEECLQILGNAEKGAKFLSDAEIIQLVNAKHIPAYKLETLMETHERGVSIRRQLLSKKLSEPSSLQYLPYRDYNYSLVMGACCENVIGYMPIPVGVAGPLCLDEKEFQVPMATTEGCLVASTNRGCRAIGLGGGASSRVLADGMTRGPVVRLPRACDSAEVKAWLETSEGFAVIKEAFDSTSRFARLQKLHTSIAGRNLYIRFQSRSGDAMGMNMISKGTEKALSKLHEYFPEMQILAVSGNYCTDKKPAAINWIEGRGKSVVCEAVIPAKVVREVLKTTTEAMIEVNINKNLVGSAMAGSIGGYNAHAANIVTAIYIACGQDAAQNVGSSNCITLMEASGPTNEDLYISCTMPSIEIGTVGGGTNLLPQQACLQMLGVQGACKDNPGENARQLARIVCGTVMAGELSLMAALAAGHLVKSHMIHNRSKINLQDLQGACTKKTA
UniProt P07384: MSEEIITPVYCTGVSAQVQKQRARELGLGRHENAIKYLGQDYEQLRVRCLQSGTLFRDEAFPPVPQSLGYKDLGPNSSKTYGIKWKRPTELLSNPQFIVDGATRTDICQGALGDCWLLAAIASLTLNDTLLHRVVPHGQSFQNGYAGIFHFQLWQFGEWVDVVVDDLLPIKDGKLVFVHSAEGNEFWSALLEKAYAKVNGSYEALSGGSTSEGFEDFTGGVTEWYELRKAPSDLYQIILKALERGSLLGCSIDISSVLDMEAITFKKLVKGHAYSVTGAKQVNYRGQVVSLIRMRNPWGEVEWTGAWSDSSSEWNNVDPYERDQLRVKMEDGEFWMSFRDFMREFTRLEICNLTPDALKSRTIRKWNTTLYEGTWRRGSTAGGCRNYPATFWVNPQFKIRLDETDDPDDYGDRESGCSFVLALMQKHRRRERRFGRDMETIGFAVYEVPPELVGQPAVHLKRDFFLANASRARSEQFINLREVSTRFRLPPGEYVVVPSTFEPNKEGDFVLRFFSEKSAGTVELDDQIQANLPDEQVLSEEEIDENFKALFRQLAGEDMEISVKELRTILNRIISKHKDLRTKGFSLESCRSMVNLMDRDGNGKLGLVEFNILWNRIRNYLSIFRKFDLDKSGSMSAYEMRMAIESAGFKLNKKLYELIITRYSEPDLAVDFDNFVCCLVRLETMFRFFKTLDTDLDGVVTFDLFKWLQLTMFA
UniProt P04181: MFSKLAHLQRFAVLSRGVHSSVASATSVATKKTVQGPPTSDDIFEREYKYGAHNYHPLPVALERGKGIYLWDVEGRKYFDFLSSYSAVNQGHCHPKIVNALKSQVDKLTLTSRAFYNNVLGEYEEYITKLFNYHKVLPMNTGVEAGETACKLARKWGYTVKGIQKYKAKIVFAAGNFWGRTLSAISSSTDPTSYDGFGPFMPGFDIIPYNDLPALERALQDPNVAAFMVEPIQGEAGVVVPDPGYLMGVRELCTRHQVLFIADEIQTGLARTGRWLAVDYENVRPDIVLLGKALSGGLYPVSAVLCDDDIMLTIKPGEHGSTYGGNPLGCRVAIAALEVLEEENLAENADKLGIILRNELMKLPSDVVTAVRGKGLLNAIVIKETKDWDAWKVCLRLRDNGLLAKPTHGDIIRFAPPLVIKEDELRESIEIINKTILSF
UniProt P0C2W1: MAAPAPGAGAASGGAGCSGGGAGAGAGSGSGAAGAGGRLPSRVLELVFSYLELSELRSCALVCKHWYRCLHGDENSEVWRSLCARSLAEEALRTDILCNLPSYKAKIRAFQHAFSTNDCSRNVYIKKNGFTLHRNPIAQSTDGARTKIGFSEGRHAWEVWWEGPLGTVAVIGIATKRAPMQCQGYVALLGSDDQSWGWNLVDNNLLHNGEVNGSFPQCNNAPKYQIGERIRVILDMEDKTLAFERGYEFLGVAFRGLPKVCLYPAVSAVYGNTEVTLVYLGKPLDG
UniProt O95801: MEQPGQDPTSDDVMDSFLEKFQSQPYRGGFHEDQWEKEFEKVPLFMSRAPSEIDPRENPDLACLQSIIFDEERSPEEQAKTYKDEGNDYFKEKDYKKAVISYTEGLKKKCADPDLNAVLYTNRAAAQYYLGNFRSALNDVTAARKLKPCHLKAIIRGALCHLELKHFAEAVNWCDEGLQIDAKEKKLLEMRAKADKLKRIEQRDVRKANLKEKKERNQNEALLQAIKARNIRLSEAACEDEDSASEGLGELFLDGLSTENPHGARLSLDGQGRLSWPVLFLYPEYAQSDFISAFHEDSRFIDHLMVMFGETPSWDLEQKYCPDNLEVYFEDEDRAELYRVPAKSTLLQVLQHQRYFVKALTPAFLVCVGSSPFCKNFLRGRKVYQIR
UniProt P12004, whole entry: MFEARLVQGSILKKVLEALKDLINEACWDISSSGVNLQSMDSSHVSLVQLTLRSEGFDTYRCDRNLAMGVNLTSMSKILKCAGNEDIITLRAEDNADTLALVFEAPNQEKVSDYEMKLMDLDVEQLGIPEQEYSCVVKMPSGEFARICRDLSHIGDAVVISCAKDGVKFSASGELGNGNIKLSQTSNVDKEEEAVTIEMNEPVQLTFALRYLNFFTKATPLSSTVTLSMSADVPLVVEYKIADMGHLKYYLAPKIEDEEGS
UniProt P00374: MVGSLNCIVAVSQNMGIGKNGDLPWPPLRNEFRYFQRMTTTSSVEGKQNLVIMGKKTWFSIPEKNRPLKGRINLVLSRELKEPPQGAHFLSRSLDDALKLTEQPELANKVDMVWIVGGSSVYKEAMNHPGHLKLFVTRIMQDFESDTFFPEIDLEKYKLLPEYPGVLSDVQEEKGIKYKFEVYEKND
UniProt O96013: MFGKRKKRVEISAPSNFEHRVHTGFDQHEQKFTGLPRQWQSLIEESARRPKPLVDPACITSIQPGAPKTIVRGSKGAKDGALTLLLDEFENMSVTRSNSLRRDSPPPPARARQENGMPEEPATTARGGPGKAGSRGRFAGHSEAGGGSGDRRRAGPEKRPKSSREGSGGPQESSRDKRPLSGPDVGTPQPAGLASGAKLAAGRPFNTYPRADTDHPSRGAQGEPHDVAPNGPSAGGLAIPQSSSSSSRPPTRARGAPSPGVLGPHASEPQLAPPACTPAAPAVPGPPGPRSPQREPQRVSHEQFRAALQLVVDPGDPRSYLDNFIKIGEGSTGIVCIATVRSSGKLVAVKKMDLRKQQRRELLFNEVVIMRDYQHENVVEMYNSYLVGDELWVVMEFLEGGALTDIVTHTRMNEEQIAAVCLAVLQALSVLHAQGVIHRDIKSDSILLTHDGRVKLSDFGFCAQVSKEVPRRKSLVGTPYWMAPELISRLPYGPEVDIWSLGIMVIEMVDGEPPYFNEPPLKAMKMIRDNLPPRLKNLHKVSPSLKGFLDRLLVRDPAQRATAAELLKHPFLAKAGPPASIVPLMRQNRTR

Target	NP40-soluble protein abundance (concentration: 1mM)	NP40-soluble protein abundance (concentration: 2mM)	NP40-soluble protein abundance (concentration: 4mM)	NP40-soluble protein abundance (concentration: 6mM)	NP40-soluble protein abundance (concentration: 8mM)	NP40-soluble protein abundance (concentration: 10mM)
LGALS1 (UniProt P09382)	1.02 ± 0.14	0.994 ± 0.069	0.978 ± 0.088	1.01 ± 0.092	0.96 ± 0.086	0.946 ± 0.062
SLC25A5 (UniProt P05141)	0.99 ± 0.084	0.995 ± 0.036	0.999 ± 0.033	0.97 ± 0.018	1.02 ± 0.038	1.09 ± 0.059
UQCRH (UniProt P07919)	0.97 ± 0.12	0.93 ± 0.1	0.801 ± 0.06	0.66 ± 0.29	0.515 ± 0.018	0.471 ± 0.15
UniProt P10747 and related entries	0.98 ± 0.019	0.961 ± 0.043	0.949 ± 0.02	1 ± 0.018	0.936 ± 0.038	0.934 ± 0.034
UniProt P13807 and related entries	1.06 ± 0.088	0.933 ± 0.069	0.924 ± 0.099	0.841 ± 0.073	0.844 ± 0.14	0.91 ± 0.04
UniProt P13473-2|P13473 and related entries	0.938 ± 0.056	0.916 ± 0.026	0.91 ± 0.03	0.992 ± 0.032	0.881 ± 0.018	0.834 ± 0.05
MYL6B (UniProt P14649)	0.924 ± 0.1	0.93 ± 0.1	0.908 ± 0.056	0.953 ± 0.13	0.876 ± 0.034	0.811 ± 0.11
UniProt P10244 and related entries	1.05 ± 0.12	1.12 ± 0.12	1.06 ± 0.083	1.25 ± 0.059	1.1 ± 0.051	1.17 ± 0.07
DLAT (UniProt P10515)	1.31 ± 0.28	1.03 ± 0.2	0.967 ± 0.16	1.06 ± 0.51	1.04 ± 0.35	0.987 ± 0.28
SNRPA1 (UniProt P09661)	0.961 ± 0.082	0.992 ± 0.044	0.987 ± 0.047	1.05 ± 0.077	1.02 ± 0.053	1 ± 0.045
UniProt P04035 and related entries	0.98 ± 0.04	1 ± 0.067	1.04 ± 0.036	0.992 ± 0.12	1.02 ± 0.11	1.08 ± 0.075
CAPN1 (UniProt P07384)	1.05 ± 0.11	1.03 ± 0.082	1 ± 0.088	0.955 ± 0.12	1.04 ± 0.08	1 ± 0.065
OAT (UniProt P04181)	0.978 ± 0.029	0.955 ± 0.02	0.918 ± 0.043	0.876 ± 0.027	0.896 ± 0.046	0.92 ± 0.029
FBXO45 (UniProt P0C2W1)	0.909 ± 0.12	0.892 ± 0.14	0.965 ± 0.11	0.847 ± 0.081	0.915 ± 0.072	0.887 ± 0.1
TTC4 (UniProt O95801)	0.993 ± 0.018	0.987 ± 0.0076	0.958 ± 0.022	0.97 ± 0.027	0.932 ± 0.021	0.925 ± 0.024
PCNA (UniProt P12004)	0.979 ± 0.018	0.95 ± 0.024	0.918 ± 0.011	0.969 ± 0.026	0.936 ± 0.022	0.923 ± 0.037
DHFR (UniProt P00374)	1.04 ± 0.079	0.999 ± 0.1	0.981 ± 0.081	0.979 ± 0.053	0.986 ± 0.041	0.993 ± 0.055
GLUL (UniProt P15104)	1 ± 0.025	0.963 ± 0.026	0.95 ± 0.027	0.984 ± 0.027	0.965 ± 0.012	0.939 ± 0.022
UniProt P12814 and related entries	0.976 ± 0.013	0.973 ± 0.011	0.9535 ± 0.0057	0.977 ± 0.031	0.9628 ± 0.0044	0.96 ± 0.048
PAK4 (UniProt O96013)	1.02 ± 0.019	0.999 ± 0.032	1.021 ± 0.0019	0.974 ± 0.018	1 ± 0.028	0.985 ± 0.011

Another view of some results above:
LGALS1 (UniProt P09382)
  NP40-soluble protein abundance (concentration: 1mM): 1.02 ± 0.14
  NP40-soluble protein abundance (concentration: 2mM): 0.994 ± 0.069
  NP40-soluble protein abundance (concentration: 4mM): 0.978 ± 0.088
  NP40-soluble protein abundance (concentration: 6mM): 1.01 ± 0.092
  NP40-soluble protein abundance (concentration: 8mM): 0.96 ± 0.086
  NP40-soluble protein abundance (concentration: 10mM): 0.946 ± 0.062
SLC25A5 (UniProt P05141)
  NP40-soluble protein abundance (concentration: 1mM): 0.99 ± 0.084
  NP40-soluble protein abundance (concentration: 2mM): 0.995 ± 0.036
  NP40-soluble protein abundance (concentration: 4mM): 0.999 ± 0.033
  NP40-soluble protein abundance (concentration: 6mM): 0.97 ± 0.018
  NP40-soluble protein abundance (concentration: 8mM): 1.02 ± 0.038
  NP40-soluble protein abundance (concentration: 10mM): 1.09 ± 0.059
